Measurements: PubChem BioAssay (NCATS)
Inconclusive means that the source gave no clear call. Such entries were picked first, then a sample of the others. For some assays here: Where the call is inconclusive, the potency comes from a doubtful curve fit. Calls of active or inactive are those of the source. Unless noted, calls follow the shape of the dose curve; as a rule, active = well fitted curve in the direction sought with a large enough effect; inconclusive = small, poorly fitted or top-dose-only effect, or another doubt; inactive = no such curve, though single readings can be large; an effect the other way counts as inactive or inconclusive.

Protein sequences, listed by entry. Tags and fused reporters are not part of them. Lines headed by an entry give the natural chain unless they say otherwise; changes in a name come on top.
UniProt Q03181: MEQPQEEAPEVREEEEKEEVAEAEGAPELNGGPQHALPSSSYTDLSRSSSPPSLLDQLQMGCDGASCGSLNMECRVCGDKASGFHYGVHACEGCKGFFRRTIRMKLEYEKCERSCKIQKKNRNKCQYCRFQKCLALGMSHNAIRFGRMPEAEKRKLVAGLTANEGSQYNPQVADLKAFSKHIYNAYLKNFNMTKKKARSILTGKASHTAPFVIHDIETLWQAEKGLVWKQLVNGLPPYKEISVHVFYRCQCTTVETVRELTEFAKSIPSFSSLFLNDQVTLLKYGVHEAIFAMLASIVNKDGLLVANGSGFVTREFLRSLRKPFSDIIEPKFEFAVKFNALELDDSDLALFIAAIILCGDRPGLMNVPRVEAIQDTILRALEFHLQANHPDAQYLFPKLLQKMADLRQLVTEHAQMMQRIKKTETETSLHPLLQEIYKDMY
UniProt P01375, whole entry, looked up: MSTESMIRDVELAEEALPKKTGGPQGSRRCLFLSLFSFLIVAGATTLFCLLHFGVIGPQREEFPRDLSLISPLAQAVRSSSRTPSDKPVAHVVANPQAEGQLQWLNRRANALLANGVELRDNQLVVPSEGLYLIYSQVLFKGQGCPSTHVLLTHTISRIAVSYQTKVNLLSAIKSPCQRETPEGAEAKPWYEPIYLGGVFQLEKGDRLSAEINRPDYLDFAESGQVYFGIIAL
UniProt P09958, whole entry, looked up: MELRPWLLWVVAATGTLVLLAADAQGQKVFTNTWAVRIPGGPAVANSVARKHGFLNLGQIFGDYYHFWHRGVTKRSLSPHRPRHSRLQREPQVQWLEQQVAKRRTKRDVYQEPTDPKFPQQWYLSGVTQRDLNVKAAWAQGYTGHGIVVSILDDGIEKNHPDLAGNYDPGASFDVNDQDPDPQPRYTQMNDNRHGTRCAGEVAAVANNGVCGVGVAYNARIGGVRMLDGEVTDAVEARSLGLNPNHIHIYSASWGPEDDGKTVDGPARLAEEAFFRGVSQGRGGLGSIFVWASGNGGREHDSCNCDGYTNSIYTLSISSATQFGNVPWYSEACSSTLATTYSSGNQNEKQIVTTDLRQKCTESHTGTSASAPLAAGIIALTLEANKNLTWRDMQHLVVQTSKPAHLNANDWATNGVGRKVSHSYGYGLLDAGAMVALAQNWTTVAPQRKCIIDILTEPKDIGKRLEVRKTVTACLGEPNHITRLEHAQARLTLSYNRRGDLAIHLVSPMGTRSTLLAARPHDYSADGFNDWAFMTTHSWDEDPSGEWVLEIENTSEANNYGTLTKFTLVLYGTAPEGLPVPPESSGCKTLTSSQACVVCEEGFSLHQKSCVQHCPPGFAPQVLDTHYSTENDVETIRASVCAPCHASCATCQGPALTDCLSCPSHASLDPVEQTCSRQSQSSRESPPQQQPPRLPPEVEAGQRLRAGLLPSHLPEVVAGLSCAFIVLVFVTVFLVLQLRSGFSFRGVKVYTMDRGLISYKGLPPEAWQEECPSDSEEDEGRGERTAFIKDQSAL

Tests used:
[1] = Cell Viability - LYMP1-003 - Assay at 40 hr (AID 964); settings: LYMP1-003 lymphoblastoid viability; also: potency is read from the fitted curve at half-maximal effect; nearly all actives have a fitted effect of over 60% in size
Procedure, shortened: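 Luminescent ATP signal (CellTiter-Glo) served as the viability read-out after 40 hr compound treatment of human lymphoblastoid LYMP1-003 cells at 37 C. Decreases in ATP were fitted with the Hill equation to give AC50.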

[2] = Cell Viability - LYMP2-003 (AID 965); settings: LYMP2-003 lymphoblastoid cell viability;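 also: potency is read from the fitted curve at half-maximal effect; cells exposed to compounds for 24 h before reading; nearly all actives have a fitted effect of over 50% in size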
Procedure, shortened: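 CellTiter-Glo luminescence quantified ATP loss after 24 h compound treatment of LYMP2-003 lymphoblastoid cells at 37 C. Titration series were fitted with the standard Hill equation to give AC50.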

[3] = Cell Viability - LYMP2-004 (AID 966); settings: LYMP2-004 lymphoblastoid cell viability, qHTS; series mostly up to 92.2 µM; also: potency is read from the fitted curve at half-maximal effect; nearly all actives have a fitted effect of over 65% in size
Procedure, shortened: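 qHTS cytotoxicity: human lymphoblastoid line, 24 hr compound treatment, 37 C, complete medium. Viability read as cellular ATP via luciferase luminescence; tetraoctylammonium bromide served as positive control.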

[4] = Cell Viability - LYMP2-011 (AID 969); settings: LYMP2-011 lymphoblastoid cells viability; series mostly up to 92.2 µM;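 also: 0% = DMSO only and full inhibition = 92 µM tetraoctylammonium bromide; nearly all actives have a fitted effect of over 60% in size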
Procedure, shortened: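 In this qHTS cytotoxicity format, compounds are tested across concentrations on human lymphoblastoid cells in complete medium for 24 hours at 37 C. Viability is taken as cellular ATP measured by luciferase luminescence.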

[5] = Cell Viability - LYMP2-017 (AID 972); settings: LYMP2-017 lymphoblastoid cell viability; series mostly up to 92.2 µM; also: potency is read from the fitted curve at half-maximal effect; nearly all actives have a fitted effect of over 55% in size
Procedure, shortened: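 Cytotoxicity is scored as a concentration-dependent drop in cellular ATP in a human lymphoblastoid line after 24 hr treatment at 37 C. Values are AC50s from Hill-equation modelling.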

[6] = Cell Viability - LYMP2-007 (AID 979); settings: LYMP2-007 lymphoblastoid cell viability;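 also: potency is read from the fitted curve at half-maximal effect; cells exposed to compound for 24 h before reading; nearly all actives have a fitted effect of over 60% in size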
Procedure, shortened: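 Cells are seeded at 2500 per well and rested 5 hr. Compounds are then added over a concentration series for 24 hr at 37 C. CellTiter-Glo is added for 30 min at room temperature before luminescence reading.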

[7] = Cell Viability - LYMP2-010 (AID 981); settings: LYMP2-010 lymphoblastoid cell viability, qHTS; series mostly up to 92.2 µM; also: potency is read from the fitted curve at half-maximal effect; nearly all actives have a fitted effect of over 55% in size
Procedure, shortened: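 Steps: seed 2500 LYMP2-010 cells per well; incubate 5 hr at 37 C; add compound; incubate 24 hr at 37 C; add CellTiter-Glo, wait 30 min at room temperature; read luminescence. Concentration-response fitted to Hill equation for AC50.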

[8] = Cell Viability - LYMP2-024 (AID 988); settings: LYMP2-024 lymphoblastoid cell viability; also: potency is read from the fitted curve at half-maximal effect; nearly all actives have a fitted effect of over 60% in size
Procedure, shortened: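 qHTS cytotoxicity, human lymphoblastoid line, complete medium; 24 h cpd treatment, 37 C; CellTiter-Glo ATP luminescence readout; tetraoctylammonium bromide positive control; AC50 via Hill fit.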

[9] = target: Peroxisome proliferator-activated receptor delta (Homo sapiens) (UniProt Q03181); test: qHTS assay for small molecule agonists of peroxisome proliferator-activated receptor delta signaling (AID 588534; calls by dose curve;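 also: 0% = DMSO basal wells and 100% = positive control agonist at 10 µM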); settings: HEK293T PPARdelta-UAS-bla, beta-lactamase ratio, 18 h; activation: at 76.7 µM (top of the series)
Procedure, shortened: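 Agonist-mode qHTS; reporter cells, 5 hrs 37 C pre-incubation; compound titration, 18 hrs 37 C; CCF4 dye, 2 hrs RT; fluorescence read. EC50/efficacy via Hill fit.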

[10] = qHTS assay for small molecule disruptors of the mitochondrial membrane potential - 1 hr assay (AID 651754; calls by dose curve; also: % is scaled to controls: 0 for no effect and ±100 for the full control effect; nearly all actives have a fitted effect of over 35% in size); settings: ratio change, negative = depolarisation: at 92.2 µM (top of the series)
Procedure, shortened: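 Loss of mitochondrial potential shifts the cationic dye from red mitochondrial aggregates to green cytoplasmic monomers. Cells (HepG2) are treated with compound for 1 hr before a 30 min dye incubation at 37C.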

[11] = target: Tumor necrosis factor (Homo sapiens) (UniProt P01375); test: qHTS assay to identify small molecules that stimulate Tumor Necrosis Factor-alpha (TNF-alpha) secretion (AID 651757; active = well fitted curve in the direction sought with a large enough effect in the signal ratio; inconclusive = small, poorly fitted or top-dose-only effect, or a change in a side signal; inactive = no such curve, though single readings can be large or run the other way; the % refers to the signal ratio; also: 0% is about no effect); settings: Human cells, HTRF 665/615 ratio; activation (TNF-alpha secretion): at 92.2 µM (top of the series)
Procedure, shortened: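 Human monocytic THP-1 cells are plated, treated with compound and held at 37 C for 17 hrs. Labeled anti-TNF-alpha antibody mixture is then added; after 3 hr at room temperature, TR-FRET signal reports secreted TNF-alpha.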

[12] = qHTS assay for small molecule antagonists of the retinoid-related orphan receptor gamma (ROR-gamma) signaling pathway - cell viability counter screen (AID 720652; active = well fitted curve in the direction sought with a large enough effect in the repeat runs; inconclusive = weak or mixed curves; inactive = no such curve, though single readings can be large; an effect the other way counts as inactive or inconclusive;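 also: potency is read from the fitted curve at half-maximal effect; compound exposure lasted 16 hr before ATP read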); settings: RORgamma reporter cell line viability counter screen; series mostly up to 92.2 µM
Procedure, shortened: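 Steps: seed CHO cells bearing TET-inducible ROR and ROR response element-luciferase; rest 5 hr at 37 C; add compound, then doxycycline; incubate 16 hr; add CellTiter-Glo and read luminescence as ATP-based viability.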

Furin (Homo sapiens) = Furin (Homo sapiens) (UniProt P09958); test: Furin counterscreen qHTS for Zika virus inhibitors (AID 1347149); settings: furin enzymatic counterscreen, fluorogenic substrate; series mostly up to 57.5 µM; also: potency is read from the fitted curve at half-maximal effect; nearly all actives have a fitted effect of over 70% in size
Procedure, shortened: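 Counterscreen measures cleavage of 2 microM BOC-RVRR-AMC, below its ~15 microM Km, by 5 nM full-length human furin at pH 7.0 after a 15-min compound preincubation. Inhibition derives from the 15-min fluorescence increase at 37C.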

[13] = Quantitative High-Throughput drug screen in 47 multiple myeloma cell lines against the NCATS MIPE library collection: RPMI8226_ATCC cell viability assay (AID 1919871); settings: RPMI8226 myeloma viability, CellTiter-Glo ATP luminescence, 48 h; series mostly up to 45.8 µM; also: potency is read from the fitted curve at half-maximal effect; nearly all actives have a fitted effect of over 30% in size
Procedure, shortened: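 ATP-based CellTiter-Glo luminescence after 48 h drug exposure (37 °C, 5% CO2) of 500 myeloma cells per well. DMSO-only wells set 100% viability, media-only wells 0%; MIPE 4.0 library added by pin tool.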

CCCC(=O)c1cc(O)c(O)cc1O
inactive: Potency [4]
inconclusive: Potency [1] 50.1 µM [cytotoxic, partial curve] | Potency [2] 79.4 µM [cytotoxic, partial curve] | Potency [3] 79.4 µM [cytotoxic, partial curve, poor fit] | Potency [5] 50.1 µM [cytotoxic, partial curve, poor fit] | Potency [6] 79.4 µM [cytotoxic, single point] | Potency [7] 39.8 µM [cytotoxic, partial curve, poor fit] | Potency [8] 79.4 µM [cytotoxic, single point] | activation [9] -16.4% | ratio change, negative = depolarisation [10] 35.8% | activation (TNF-alpha secretion) [11] 2.23% | Potency [12] 75 µM [cytotoxic, partial curve, poor fit]

CC(C)c1cc(C(C)C)c(CC(=O)NS(=O)(=O)Oc2c(C(C)C)cccc2C(C)C)c(C(C)C)c1
inconclusive: Potency (Furin (Homo sapiens)) 7.64 µM [inhibitor, full curve] | Potency [13] 26.4 µM [cytotoxic, single point]
